Measurements: publication PMC3296614
No constants are given. Whether binding was seen depends on the method and setting. In cells and extracts the contact can be indirect. These calls come from enrichment with a bait or labelling near it, and not all partners need be listed. No binding means not detected with the bait. Tags and fused reporters may be left off the sequences shown.

Biological target: HA-tagged PfCK2β2 (P. falciparum)
Experiment: affinity purification with mass spectrometry; extracts (M-PER, protease inhibitors, benzonase) of parasites expressing HA-tagged PfCK2β1 or PfCK2β2 incubated overnight with anti-HA crosslinked onto sepharose beads, three washes in TBS, elution in boiled Laemmli buffer, SDS-PAGE, in-gel trypsin digestion, LC-MS/MS; wild-type 3D7 extract as negative control

B1: Histone H2B variant (protein, UniProt Q8IBV7 1-123)
chain: MSGKGPAQKSQAAKKTAGKTLGPRHKRKRRTESFSLYIFKVLKQVHPETGVTKKSMNIMNSFINDIFDRLVTEATRLIRYNKKRTLSSREIQTAVRLLLPGELSKHAVSEGTKAVTKYTTSAA
In the case of B1, the binding is reported as “no binding”.
